Source: PubChem BioAssay AID2685 (National Center for Advancing Translational Sciences (NCATS), 2010)
In all, about 320,000 compounds went through this assay and about 2,100 (0.66%) were called active. This list was built around the results that the source calls inconclusive (neither active nor inactive); the mix of calls is not that of the screen. The call rests on the fitted dose curve; in most records, active means well fitted inhibition curve with a large enough effect in the signal ratio, with a control signal flat (not every such curve was filed as active); inconclusive means small, poorly fitted or top-dose-only effect, or effect the other way, or a change in a side signal; inactive means flat fitted curve, though single readings scatter; the % refers to the signal ratio. A potency beside an inconclusive call is a rough fit, not a confirmed value.

Assay: qHTS Assay for Lipid Storage Modulators in Drosophila S3 Cells
Settings: BODIPY lipid droplet fluorescence, 18-24 h, cells fed with added oleic acid; lipid storage change, negative = inhibition: at 46.1 µM (top of the series) unless noted
Method in brief: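 Drosophila S3 cells got compounds at several concentrations plus oleic acid (400 uM solution). Laser-scanning cytometry with 488 nm excitation read lipid droplets at 500-530 nm and cells at 575-640 nm. Percent activity was relative to 20 uM Triacsin C.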
On the % scale 0 is the no-effect control and ±100 the full control effect; potency means the concentration at half of the fitted maximal effect.

Potency, inconclusive:
CCc1nc2oc3cc(OC)ccc3c(=O)c2c(=O)n1-c1ccccc1 4.61 µM [activator, partial curve]
O=C(c1ccco1)N1CCN(C(=O)c2cc3ccccc3oc2=O)CC1 0.461 µM [activator, single point]
CCSc1ccc([C@@H]2[C@@H]3C(=O)N(CC)C(=O)[C@@H]3[C@]3(C(=O)OC)CCCCN23)cc1 6.51 µM [activator, partial curve]
CCCCN(C(=O)c1c(C)noc1C)c1c(N)n(CCC)c(=O)[nH]c1=O 0.116 µM [falling, full curve]
Cc1[nH]n2c(=O)c(C#N)c(-c3ccccc3)nc2c1-c1ccccc1 0.058 µM [falling, full curve, poor fit]
CC(C)c1cc(=O)n2c(nc3ccccc32)[nH]1 29.1 µM [falling, single point]
CCc1ccc(C2=NNC(=Nc3c(C)n(C)n(-c4ccccc4)c3=O)SC2)cc1 0.0164 µM [falling, full curve, poor fit]
O=C(NCc1cccnc1)Nc1ccc(Br)cc1Cl 29.1 µM [activator, single point]
COc1ccc(N2CCN(S(=O)(=O)c3cc(-c4cc(C)no4)ccc3C(C)C)CC2)cc1 14.6 µM [activator, single point]
COc1ccc(NC(=O)CCNC(=O)Cn2ccc3ccccc3c2=O)cc1Cl 29.1 µM [falling, single point]
CC1(C)CC2CC(C)(CN2C(=O)COC(=O)c2ccccc2C(F)(F)F)C1 (stereo not drawn) 3.66 µM [activator, full curve]
Cc1ccc2cc(CN(C(=O)C3CCCO3)C3CCCCC3)c(=O)[nH]c2c1 (stereo not drawn) 29.1 µM [activator, single point]

2 records picked at random from those above, as already listed:
Potency, inconclusive:
COc1ccc(N2CCN(S(=O)(=O)c3cc(-c4cc(C)no4)ccc3C(C)C)CC2)cc1 14.6 µM [activator, single point]
CCCCN(C(=O)c1c(C)noc1C)c1c(N)n(CCC)c(=O)[nH]c1=O 0.116 µM [falling, full curve]

Following part:

Lipid storage change, negative = inhibition, inactive:
CCOc1ccc(/C=N/n2c(SC)nnc(C(C)(C)C)c2=O)cc1 3.3%

Lipid storage change, negative = inhibition, inconclusive:
CCc1ccc(S(=O)(=O)N/N=C\c2ccc3c(c2)OCO3)cc1 9.89%
CCC(c1nnnn1CCc1ccccc1)N1CCN(c2ccc(OC)cc2)CC1 (stereo not drawn) 24.1%
CC1Oc2ccccc2N(Cc2cccnc2)C1=O (stereo not drawn) 27%
CC1CCCN(C(=O)C(Cc2ccccc2)n2cccc2)C1 (stereo not drawn) -1.7%
CCc1ccccc1N1CC23C=CC(O2)C(C(=O)OCC(C)C)C3C1=O (stereo not drawn) 25.7% [at 9.22 µM]
Cc1ccc(C(=O)NCC(=O)NCC(=O)OCC(=O)c2ccc(Br)cc2)cc1 -26.8%
CC(C)(C)NC(=O)Cn1c(SCC(=O)N2CCCCCC2)nc2ccccc21 15.7%
COCC(=O)Nc1nc2n(n1)C(c1ccccc1Cl)CC(c1ccc(OC)cc1)N2 (stereo not drawn) 0.906%
COCCNc1nnc(SCC(=O)c2ccc3c(c2)OCO3)s1 -33.9%
COC(=O)C1=C(C)n2cnnc2NC1c1ccc(Cl)cc1 (stereo not drawn) 33.4%
Nc1nc(NCc2ccco2)nc(NCCO)c1[N+](=O)[O-] 6.3%
Cc1ccc(CCNC(=O)C2CCN(S(=O)(=O)c3ccc4c(c3)NC(=O)C(C)S4)CC2)cc1 (stereo not drawn) 11.2%
O=C(CN1CCCCCCC1)Nc1cc(Cl)cc(Cl)c1 14.5%
CC(C)CC(NC(=O)/C(=C/c1ccco1)NC(=O)c1ccc(Br)o1)C(=O)O (stereo not drawn) -19.3%
CN(C)S(=O)(=O)c1cccc(NC(=O)COC(=O)c2cccn2C)c1 52.9%
Cc1cc(-c2nnnn2-c2ccc(F)cc2)no1 2.51%
CCC(CC)C(=O)NCCc1cc2cc(C)c(C)cc2[nH]c1=O 35.6%
O=C(NCCN1CCc2ccccc2C1)C1CCN(S(=O)(=O)N2CCCCC2)CC1 20.7%
COc1ccc(NC(=O)Cn2c(=O)n(CC(=O)NCc3ccco3)c(=O)c3ccccc32)cc1 2.04%
Nn1c(SC/C=C/c2ccccc2)nnc1-c1ccco1 22.2%
COc1ccc(C2NCCc3sccc32)cc1 (stereo not drawn) 10.7%
COc1ccc(NC2=CC(=O)CC(C)(C)C2)cc1OC -10.2%
CCOc1ccc(Cl)cc1CNc1nnnn1CC 3.99%
C=CCC(NCCCO)c1cccc(OC)c1OC (stereo not drawn) -44.7%
CCN(CC)CCNC(=O)CCCCn1c(=S)[nH]c2c([nH]c3ccc(OC)cc32)c1=O -4.49%
